Measurements taken from US20180092894A1, “TREATMENT OF EOSINOPHILIC INFLAMMATORY DISEASE” (Northwestern University, priority 2016, published 2018).
At least one structure is not confirmed: it was looked up by name or label, or the drawing left a doubt.

What was measured:
[1] = tested on: IL-13-induced eotaxin-3 protein secretion in BEAS-2B cells; assay: IL-13-induced eotaxin-3 protein secretion in BEAS-2Bs (ELISA); assay type: cell-based, human; settings: 2 h pretreatment (1-50 μM), IL-13 5 ng/ml 48 h
Experimental: BEAS-2B, a human bronchial epithelial cell line transformed with a hybrid adenovirus 12-simian virus 40 was obtained from ATCC (CRL-9609, Manassas, Va.). Primary HNECs were collected by epithelial scraping of IT and NP and cultured. For cytokine (Peprotech, Rocky Hill, N.J.) stimulation, submerged cultured cells were treated with 1-100 ng/ml IL-13, 10 ng/ml IFN-γ, 100 ng/ml TNF or 50 ng/ml IL-17 for 6 h or 48 h. To study the effects of PPIs (Sigma-Aldrich, St Louis, Mo.) on cytokine-induced chemokines, cells were pretreated for 2 h with acid-activated omeprazole (0.1-50 μM) or other PPIs: lansoprazole, rabeprazole, pantoprazole, and esomeprazole (1-50 μM) prior to stimulation with 5 ng/ml IL-13. Additionally, SCH-28080 (1-50 μM; Sigma-Aldrich) was used with the same protocol. In experiments altering extracellular K^+ concentration ([K^+]e), modified Ringer's solution that contained different contents of K^+ (0-11.2 mM KCl, Table 4) was used as culture media. For mRNA stability assessment, actinomycin D (3 μg/ml, Sigma-Aldrich) was used and eotaxin-3 mRNA was measured using real-time PCR. Supernatants, whole cell lysates, and total RNAs were harvested for further analysis.
Eotaxin-1, eotaxin-2, and eotaxin-3 protein concentrations in supernatants were determined with the appropriate ELISA kits.

[2] = tested on: airway surface liquid pH (non-gastric H+/K+ATPase); assay: Airway surface liquid pH over NECs at air-liquid interface (SNARF-dextran); assay type: cell-based, human; settings: omeprazole 5 μM 1 hr, IL-13 5 ng/ml
[3] = tested on: IL-13-induced eotaxin-3 mRNA in BEAS-2B cells; assay: IL-13-induced eotaxin-3 mRNA expression in BEAS-2Bs (real-time PCR); assay type: cell-based, human; settings: omeprazole 2 h, IL-13 5 ng/ml 48 h
IL-13-induced MUC5AC = IL-13-induced MUC5AC gene expression in NECs at air-liquid interface; assay type: cell-based, human; settings: omeprazole 5 μM 2 h, IL-13 24 hrs
[4] = tested on: IL-13-induced eotaxin-3 mRNA in HNECs; assay: IL-13-induced eotaxin-3 mRNA expression in HNECs (real-time PCR); assay type: cell-based, human
[5] = tested on: eotaxin-3 (CCL26), periostin (POSTN), ALOX15 and claudin-5 (CLDN5); assay: IL-13-induced mediators in submerged NECs by RNA-Seq; assay type: cell-based, human; settings: acid-activated omeprazole 5 μM 2 h, IL-13 5 ng/ml 6 hours
[6] = tested on: IL-13-induced Periostin (POSTN); assay: IL-13-induced periostin gene expression in primary human nasal epithelial cells (real-time PCR); assay type: cell-based; settings: NECs; omeprazole 2 h, IL-13 5 ng/mL 48 hours
[7] = tested on: IL-13-induced eotaxin-3 mRNA stability; assay: Eotaxin-3 mRNA stability assessment with actinomycin D (real-time PCR); assay type: cell-based, human
[8] = tested on: IL-13-induced intracellular alkalinization in BEAS-2B cells (ngH,K-ATPase); assay: Intracellular pH (pHi) imaging, pHrodo Green, IL-13-stimulated BEAS-2Bs; assay type: cell-based, human
Experimental: The pH-sensitive dye, pHrodo® Green AM intracellular pH indicator (Life Technologies) that increases its fluorescence with decreasing pHi was used (ref 39; incorporated by reference in its entirety). Cells cultured in glass bottom microwell dishes (MatTek, Ashland, Mass.) were pre-treated with omeprazole or vehicle prior to 6 h IL-13 stimulation. Then cells were incubated with dye (5 μM) with live cell imaging solution (Life Technologies) at 37° C. for 30 minutes per manufacturer's instructions. Spinning disk confocal microscopy for live cells imaging was performed with Andor XDi Revolution (Andor Technologies, Belfast, UK). Fluorescence intensity was measured in 150 cells using Image J software (National Institutes of Health, Bethesda, Md.). For kinetic experiments, fluorescence intensity of cells cultured in 96-well plates with omeprazole, SCH-28080 or matched vehicle was measured at various times before and after IL-13 stimulation up to 1 h using the SpectraMax® Gemini EM Microplate Spectrofluorometer (Molecular devices, Sunnyvale, Calif.) at 485/538 nm (excitation/emission).

SMILES	effect on IL-13-induced eotaxin-3 protein secretion [1]	IL-13-induced acidification of airway surface liquid pH [2]	IL-13-induced eotaxin-3 mRNA expression [3]	IL-13 induced mucus hyper-secretion (MUC5AC gene expression) (IL-13-induced MUC5AC)	additive effect of omeprazole on eotaxin-3 induction in ATP12A siRNA-transfected cells ([4]; ATP12A siRNA-transfected, IL-13 6 h)	IL-13-induced eotaxin-3 mRNA expression ([4]; omeprazole 2 h, IL-13 5 ng/ml 48 h)	IL-13-induced mediators (CCL26, POSTN, ALOX15, CLDN5), RNA-Seq fpkm [5]	IL-13-induced Periostin gene expression [6]	eotaxin-3 mRNA decay compared to vehicle ([7]; in the presence of actinomycin D)	decline of IL-13-induced eotaxin-3 mRNA levels ([7]; without actinomycin D, over 12 h)	IL-13-induced increased intracellular pH (fluorescence intensity, confocal) ([8]; 6 h IL-13 stimulation, versus vehicle)	IL-13-induced intracellular alkalinization, kinetic studies ([8]; up to 1 h after IL-13, spectrofluorometry)
COc1ccnc(C[S+]([O-])c2nc3ccc(OC(F)F)cc3[nH]2)c1OC (stereo not shown) [pantoprazole]	dose-dependent inhibitory effects											
COc1ccc2[nH]c([S+]([O-])Cc3ncc(C)c(OC)c3C)nc2c1 (stereo not shown) [omeprazole, 5- or 6-methoxy-2-{[(4-methoxy-3,5-dimethylpyridin-2-yl)methyl]sulfinyl}-1H-ben-zimidazole]	dose-dependent inhibitory effects	prevented the acidification	dose-dependent inhibition	reduces	not observed	dose-dependent inhibition	decreased	inhibition	enhanced eotaxin-3 mRNA decay	significantly accelerated decline	significantly attenuated	blunted
